According to article PMC2688274:
No constants are given. Whether binding was seen depends on the method and setting. Binding can be weak; no strength is given.

Biological target: AGL74N-SEP2 dimer (Arabidopsis thaliana)
Assay: yeast three-hybrid; yeast PJ69-4; dimer clones (one partner fused to GAL4-AD, the other to a nuclear localization signal only, pARC352) mated with single proteins fused to GAL4-BD; growth on -L -W -A -H with 1, 5 or 10 mM 3-AT at 20°C for 7 days, and LacZ assay

binding: binds
B1: ARABIDOPSIS BSISTER, long splice form (ABS-I) (protein, UniProt Q8RYD9 1-252)
chain: MGRGKIEIKKIENQTARQVTFSKRRTGLIKKTRELSILCDAHIGLIVFSATGKLSEFCSEQNRMPQLIDRYLHTNGLRLPDHHDDQEQLHHEMELLRRETCNLELRLRPFHGHDLASIPPNELDGLERQLEHSVLKVRERKNELMQQQLENLSRKRRMLEEDNNNMYRWLHEHRAAMEFQQAGIDTKPGEYQQFIEQLQCYKPGEYQQFLEQQQQQPNSVLQLATLPSEIDPTYNLQLAQPNLQNDPTAQND
